From article PMC6079474
Results are given in words; binding and its absence hold for the method and conditions named. In cells and extracts the contact can be indirect. Some results given as binding are weak or reduced against the parent protein; the word gives no strength.

The chains behind the UniProt entries cited, without tags or fusion partners.
UniProt P37238: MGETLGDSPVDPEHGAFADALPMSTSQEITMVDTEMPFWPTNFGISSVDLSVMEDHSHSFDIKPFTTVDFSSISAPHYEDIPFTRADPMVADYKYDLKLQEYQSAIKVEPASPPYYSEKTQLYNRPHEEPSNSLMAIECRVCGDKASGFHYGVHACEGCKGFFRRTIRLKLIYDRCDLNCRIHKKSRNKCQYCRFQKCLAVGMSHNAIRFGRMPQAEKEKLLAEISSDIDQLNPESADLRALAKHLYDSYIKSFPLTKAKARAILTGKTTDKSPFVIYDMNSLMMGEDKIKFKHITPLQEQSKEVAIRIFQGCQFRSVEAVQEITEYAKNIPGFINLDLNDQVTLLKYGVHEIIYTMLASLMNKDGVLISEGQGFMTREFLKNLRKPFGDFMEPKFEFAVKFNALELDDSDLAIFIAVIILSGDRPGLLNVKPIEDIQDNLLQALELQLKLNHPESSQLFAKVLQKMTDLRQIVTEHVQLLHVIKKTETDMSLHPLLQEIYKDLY

What was measured:
[1] = biological target: T1, Foxp3 (mouse (endogenous in CD4+ T cells of C57BL/6 mice)) (UniProt Q99JB6); experiment: co-IP; lysates (~200 μg of protein) of purified mouse CD4+ T cells, stimulated with pioglitazone or GW9662 for 24 h; anti-PPAR-γ or anti-Foxp3 for 2 h at 4°C, protein A/G-plus agarose beads overnight at 4°C; immunoblot
T1 sequence: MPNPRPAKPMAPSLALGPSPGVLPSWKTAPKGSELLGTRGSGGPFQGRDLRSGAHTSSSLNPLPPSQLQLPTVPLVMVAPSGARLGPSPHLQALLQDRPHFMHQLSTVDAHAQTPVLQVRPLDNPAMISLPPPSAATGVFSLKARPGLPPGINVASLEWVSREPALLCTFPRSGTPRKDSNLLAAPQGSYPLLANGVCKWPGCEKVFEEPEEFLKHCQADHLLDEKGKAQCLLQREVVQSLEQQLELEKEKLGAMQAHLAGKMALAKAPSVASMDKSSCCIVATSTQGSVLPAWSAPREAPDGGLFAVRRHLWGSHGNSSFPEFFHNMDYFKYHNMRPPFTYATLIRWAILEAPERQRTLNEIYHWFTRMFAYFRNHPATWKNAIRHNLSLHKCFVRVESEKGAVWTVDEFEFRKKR

[2] = biological target: Peroxisome proliferator-activated receptor-γ (mouse (endogenous in CD4+ T cells of C57BL/6 mice)) (UniProt P37238); experiment: as above

## Peroxisome proliferator-activated receptor-γ (from UniProt P37238 1-505)
[1]
  binding: binds

B1: Foxp3 (protein, UniProt Q99JB6 1-417)
chain: T1 sequence
[2]
  binding: binds
